Reference: PubChem BioAssay AID1487 (National Center for Advancing Translational Sciences (NCATS), 2009)
The other results are listed elsewhere or left out. The main result of the screen is listed elsewhere. These columns were measured beside it and carry no call. Compounds called inactive in the main read-out are mostly missing here. Words in brackets tell the shape of the fitted curve; partial curves, single points and poor fits give uncertain potencies.

Assay: qHTS Assay for Modulators of Lamin A Splicing
Details: HeLa LMNA splicing GFP/RFP minigene ratio, 48 h
How it was run: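 Read-out is the ratio of GFP to DsRed2 object intensity, acquired by 488 nm laser-scanning cytometry on HeLa lamin A-EGFP minigene reporter cells. Compound incubation 48 hrs at 37 °C in Opti-MEM with 2% FBS; DMSO 0.5% final.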

[1] = measured here: GFP splicing reporter channel
[2] = measured here: RFP viability control channel

Compound | AC50 [1] | AC50 [2]
Cc1cc(C(=O)N2CCN(c3ccc([N+](=O)[O-])cc3)CC2)no1 | 0.0355 µM [rising, full curve, poor fit] | –
Cc1csc(SCc2ccccc2C(=O)O)n1 | – | 5.62 µM [rising, single point]
O=C(O)[C@@H]1CCCN1 | 35.5 µM [falling, single point] | 0.2 µM [falling, full curve, poor fit]
CCOC(=O)c1sc2ccccc2c1S(=O)(=O)N1CCN(c2cc(C)ccc2C)CC1 | – | 11.2 µM [rising, partial curve, poor fit]
Cc1ccc(C(C[N+](=O)[O-])c2c(C)cc3ccccn23)cc1 (stereo not given) | 11.2 µM [rising, single point] | 12.6 µM [rising, single point]
CCOC(=O)N1CCN(S(=O)(=O)c2ccc3c(c2)OCC(=O)N3)CC1 | – | 35.5 µM [rising, single point]
Cn1nc(-c2ccc(C(=O)N3CCN(Cc4ccccc4)CC3)cc2)c2ccccc2c1=O | – | 12.6 µM [rising, single point]
COc1ccc(OCC(=O)Nc2ccc3nn(-c4ccc(OC)cc4)nc3c2)cc1 | – | 0.0501 µM [falling, full curve, poor fit]
CCCOC1CCCN(C(=O)c2cc(Cl)c(Cl)cc2C(=O)O)C1 (stereo not given) | 5.01 µM [falling, partial curve, poor fit] | –
CCCCn1nnc(NC(=O)COc2cc(C)ccc2C(C)C)n1 | – | 1.26 µM [rising, full curve, poor fit]
CCc1c(C)nc(SCC(=O)c2ccc(C)c(C)c2)[nH]c1=O | – | 35.5 µM [rising, single point]
CC(=O)c1sc(N/N=C\c2ccccc2O)nc1C | 35.5 µM [falling, single point] | 25.1 µM [falling, single point]
COc1cc(CN(C)CC(=O)c2[nH]c(C)c(C(C)=O)c2C)ccc1OC(F)F | – | 11.2 µM [rising, single point]
CC(C(=O)NC1CCCc2ccccc21)N1CCN(Cc2ccc3c(c2)OCO3)CC1 (stereo not given) | – | 5.62 µM [rising, single point]
CNCC/C=C1/c2ccccc2CSc2ccccc21 | 35.5 µM [rising, single point] | 17.8 µM [rising, partial curve, poor fit]
COc1ccc(-c2nsc3c(SCc4ccccc4)ncnc23)cc1 | 0.01 µM [falling, full curve, poor fit] | –
OCCn1c(-c2ccc3c(c2)OCO3)csc1=Nc1ccccc1 | – | 11.2 µM [rising, partial curve, poor fit]
Clc1ccc(-c2nnc(SCc3nc4ccccc4[nH]3)o2)c(Cl)c1 | 35.5 µM [rising, single point] | 35.5 µM [rising, single point]
O=C(OC(C(=O)Nc1cc(Cl)cc(Cl)c1)c1ccccc1)C1=COCCO1 (stereo not given) | 11.2 µM [rising, single point] | 8.91 µM [rising, partial curve]
CCc1ccc(NC(=O)C(C)OC(=O)c2ccc(NS(=O)(=O)c3ccc(C)c([N+](=O)[O-])c3)cc2)cc1 (stereo not given) | – | 8.91 µM [rising, partial curve, poor fit]
CC(C)C(C)NC(=O)COc1ccc(S(=O)(=O)N2CCOCC2)cc1Cl (stereo not given) | 0.316 µM [falling, partial curve] | –
CC(C)(C)NS(=O)(=O)c1ccc(CCC(=O)Nc2cc(Cl)ccc2Oc2ccccc2)cc1 | – | 31.6 µM [rising, single point]
COC(=O)N/N=C/c1cc(Cl)cc(Cl)c1OCc1ccccc1 | 20 µM [rising, single point] | 35.5 µM [rising, partial curve]
O=C(CSc1ccc(F)cc1)NCCSc1ccccc1 | 8.91 µM [falling, partial curve] | 7.94 µM [falling, partial curve]
CN(C)S(=O)(=O)N1CCN(c2ccc([N+](=O)[O-])c(N3CCCCC3)c2)CC1 | 0.631 µM [rising, full curve, poor fit] | –
Cc1ccc(N2CCN(C(=O)c3cnn(-c4ccc(C)c(C)c4)c3C3CCNCC3)CC2)c(C)c1 | 15.8 µM [falling, partial curve, poor fit] | 22.4 µM [falling, partial curve]
N#Cc1cc(N)ccc1-n1cccc1 | 35.5 µM [falling, single point] | 35.5 µM [falling, single point]

Compound | AC50 [1] | AC50 [2]
Cc1cc(C)nc(-n2nc(C)c(Sc3ccc(F)cc3)c2N)n1 | – | 14.1 µM [rising, single point]
COc1ccc(C=O)cc1COc1ccc(Cl)cc1[N+](=O)[O-] | – | 0.0398 µM [falling, partial curve]
COc1ccc(/C=N/NC(=O)c2[nH]nc3c2CCc2ccccc2-3)cc1OC | – | 15.8 µM [rising, single point]
O=C(Nc1ccc(N2CCOCC2)cc1)Nc1ccc(Cl)c(Cl)c1 | – | 31.6 µM [rising, single point]
CC1CCCCN1c1ncnc2ccccc12 (stereo not given) | 20 µM [rising, partial curve] | 12.6 µM [rising, partial curve]
O=C(c1ccc2c(c1)N(Cc1cccc(Cl)c1)C(=O)c1ccccc1S2=O)N1CCN(c2cccc(C(F)(F)F)c2)CC1 (stereo not given) | 5.01 µM [falling, partial curve] | 0.891 µM [falling, partial curve, poor fit]
COc1cc(/C=C/C(=O)N2c3ccccc3Sc3ccc(C(F)(F)F)cc32)cc(OC)c1OC | 12.6 µM [rising, single point] | 25.1 µM [rising, single point]
O=c1cc(N2CCCCC2)c(-c2ccccc2)nn1Cc1c(Cl)cccc1Cl | 15.8 µM [falling, single point] | 12.6 µM [falling, partial curve]
O=C(Cn1c(=O)n2nc(-c3cccc(F)c3)nc2c2ccccc21)N1CCN(c2ccc(F)cc2)CC1 | – | 6.31 µM [falling, single point]
CCCCn1c(=N)n(CCOc2ccc(C)cc2)c2ccccc21 | 35.5 µM [rising, single point] | 35.5 µM [rising, single point]
Cn1c(=O)c2c(ncn2Cc2ccc(Cl)cc2)n(C)c1=O | – | 0.0158 µM [falling, full curve, poor fit]
c1ccc(N2CCN(c3nc(-c4ccccn4)nc4ccccc34)CC2)cc1 | 3.16 µM [rising, full curve, poor fit] | –
Cc1ccc(S(=O)(=O)N(C)CC(=O)Nc2nc3ccccc3s2)cc1 | – | 20 µM [rising, partial curve, poor fit]
Cc1ccc(-n2ncc3c(=O)n(Cc4cccnc4)cnc32)cc1 | 12.6 µM [rising, single point] | 31.6 µM [rising, single point]
O=C(O)C12CC3CC(C1)CC(n1ncc(NCc4ccccc4)c(Cl)c1=O)(C3)C2 | 35.5 µM [rising, single point] | –
CC(C)(C)NC(=O)C(c1ccncc1)N(Cc1cccs1)C(=O)Cn1nnc(-c2ccc(F)cc2)n1 (stereo not given) | 35.5 µM [falling, single point] | 11.2 µM [rising, partial curve, poor fit]
COCCCN=C1NN=C(c2cc(C)n(Cc3ccco3)c2C)CS1 | 4.47 µM [rising, full curve, poor fit] | 2.82 µM [rising, full curve]
N#CC(c1cccc(Cl)c1)c1ccc2c(C(F)(F)F)cc(C(F)(F)F)nc2n1 (stereo not given) | 3.55 µM [rising, partial curve] | 8.91 µM [rising, partial curve, poor fit]
Cc1cccc(N2CCN(C(=O)c3noc4c3CCCCC4)CC2)c1C | 35.5 µM [falling, partial curve, poor fit] | –
Cc1ccc(-n2ncc(C(=O)Nc3cc(Cl)ccc3Cl)c2C2CCNCC2)cc1 | 31.6 µM [falling, single point] | –
O=c1[nH]n2c(=O)c3c([nH]c2c1N=Nc1cccc(Cl)c1)CCCC3 | – | 0.891 µM [rising, full curve, poor fit]
COc1ccc(C(=O)CSc2nnc(-c3cc4ccccc4cc3O)n2Cc2ccco2)cc1 | – | 10 µM [rising, partial curve, poor fit]
COc1ccc(C2C3=C(CCCC3=O)Nc3nc(-c4cc(OC)c(OC)c(OC)c4)nn32)cc1OC (stereo not given) | – | 8.91 µM [rising, partial curve, poor fit]
COCCCNC(=O)c1ccc(CN2CCc3ccccc3C2)cc1 | – | 4.47 µM [falling, full curve, poor fit]
O=C1Nc2ccc(Br)cc2C12NNc1ccccc1O2 (stereo not given) | 35.5 µM [rising, single point] | 25.1 µM [rising, single point]
CCC(CC)c1nnc(NC(=O)c2cc(-c3ccccc3)nc3ccccc23)s1 | – | 35.5 µM [rising, single point]
Cc1noc(C)c1-c1nccc(NCc2cccs2)n1 | 6.31 µM [falling, partial curve] | 3.98 µM [falling, partial curve]

Copied from the list.
AC50 [2], COCCCN=C1NN=C(c2cc(C)n(Cc3ccco3)c2C)CS1 is entered as 2.82 µM [rising, full curve]
AC50 [2], COc1ccc(C(=O)CSc2nnc(-c3cc4ccccc4cc3O)n2Cc2ccco2)cc1 is entered as 10 µM [rising, partial curve, poor fit]

Molecules above with a thiophene ring, fused or not (3):
Compound | AC50 [1] | AC50 [2]
CCOC(=O)c1sc2ccccc2c1S(=O)(=O)N1CCN(c2cc(C)ccc2C)CC1 | – | 11.2 µM [rising, partial curve, poor fit]
CC(C)(C)NC(=O)C(c1ccncc1)N(Cc1cccs1)C(=O)Cn1nnc(-c2ccc(F)cc2)n1 (stereo not given) | 35.5 µM [falling, single point] | 11.2 µM [rising, partial curve, poor fit]
Cc1noc(C)c1-c1nccc(NCc2cccs2)n1 | 6.31 µM [falling, partial curve] | 3.98 µM [falling, partial curve]
